US7122360B1, “Polypeptides, polynucleotides and uses thereof” (University of Dundee, priority 1998, dated 2006)
For part of these data: Not every detail of the peptide structures is certain; ends, links or a residue may be inferred. For part of these data: At least one compound was matched to its structure with a doubt left. Peptide text beside a SMILES is read from it.

By UniProt entry, the sequences of proteins in these tests, tags left out. Residues count along the entry.
UniProt Q63531, whole entry: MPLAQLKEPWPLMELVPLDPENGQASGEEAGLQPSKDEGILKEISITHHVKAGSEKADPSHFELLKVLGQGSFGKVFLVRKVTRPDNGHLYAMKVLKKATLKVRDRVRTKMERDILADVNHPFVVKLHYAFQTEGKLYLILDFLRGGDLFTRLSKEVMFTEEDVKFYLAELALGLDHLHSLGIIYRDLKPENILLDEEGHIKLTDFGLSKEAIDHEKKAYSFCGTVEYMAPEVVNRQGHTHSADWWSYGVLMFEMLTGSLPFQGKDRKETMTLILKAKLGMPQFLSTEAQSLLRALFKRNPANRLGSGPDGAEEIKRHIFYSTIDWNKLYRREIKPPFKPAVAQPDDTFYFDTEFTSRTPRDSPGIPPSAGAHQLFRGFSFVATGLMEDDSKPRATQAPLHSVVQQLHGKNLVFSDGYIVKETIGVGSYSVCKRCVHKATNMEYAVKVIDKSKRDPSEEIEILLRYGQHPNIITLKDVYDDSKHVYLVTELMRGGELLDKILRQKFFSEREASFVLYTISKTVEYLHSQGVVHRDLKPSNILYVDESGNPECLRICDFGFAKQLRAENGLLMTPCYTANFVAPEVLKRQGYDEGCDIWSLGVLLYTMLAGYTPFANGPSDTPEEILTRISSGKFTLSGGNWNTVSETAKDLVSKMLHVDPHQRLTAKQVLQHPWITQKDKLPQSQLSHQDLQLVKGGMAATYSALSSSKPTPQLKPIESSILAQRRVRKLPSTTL
UniProt A0A5F9C4L9, 1-740: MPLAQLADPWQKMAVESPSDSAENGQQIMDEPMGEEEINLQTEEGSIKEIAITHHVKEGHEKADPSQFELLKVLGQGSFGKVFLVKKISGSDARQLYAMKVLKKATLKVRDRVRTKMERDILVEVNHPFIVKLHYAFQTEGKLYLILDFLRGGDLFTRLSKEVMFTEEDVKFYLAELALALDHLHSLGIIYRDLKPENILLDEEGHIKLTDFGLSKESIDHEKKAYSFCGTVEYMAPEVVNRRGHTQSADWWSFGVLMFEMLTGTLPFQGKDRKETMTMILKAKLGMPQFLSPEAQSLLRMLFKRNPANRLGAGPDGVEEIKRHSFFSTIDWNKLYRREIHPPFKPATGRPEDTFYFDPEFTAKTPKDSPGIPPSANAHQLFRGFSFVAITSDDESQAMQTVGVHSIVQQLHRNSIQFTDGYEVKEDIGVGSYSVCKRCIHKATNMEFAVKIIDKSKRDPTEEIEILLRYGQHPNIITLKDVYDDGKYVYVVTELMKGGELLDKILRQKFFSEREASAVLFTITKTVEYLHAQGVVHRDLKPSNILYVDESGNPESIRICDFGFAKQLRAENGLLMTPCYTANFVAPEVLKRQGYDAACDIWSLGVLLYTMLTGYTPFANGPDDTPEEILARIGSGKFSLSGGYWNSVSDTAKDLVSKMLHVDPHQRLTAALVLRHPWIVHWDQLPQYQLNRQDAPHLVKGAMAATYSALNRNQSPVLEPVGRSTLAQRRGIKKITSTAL
UniProt O75582, whole entry: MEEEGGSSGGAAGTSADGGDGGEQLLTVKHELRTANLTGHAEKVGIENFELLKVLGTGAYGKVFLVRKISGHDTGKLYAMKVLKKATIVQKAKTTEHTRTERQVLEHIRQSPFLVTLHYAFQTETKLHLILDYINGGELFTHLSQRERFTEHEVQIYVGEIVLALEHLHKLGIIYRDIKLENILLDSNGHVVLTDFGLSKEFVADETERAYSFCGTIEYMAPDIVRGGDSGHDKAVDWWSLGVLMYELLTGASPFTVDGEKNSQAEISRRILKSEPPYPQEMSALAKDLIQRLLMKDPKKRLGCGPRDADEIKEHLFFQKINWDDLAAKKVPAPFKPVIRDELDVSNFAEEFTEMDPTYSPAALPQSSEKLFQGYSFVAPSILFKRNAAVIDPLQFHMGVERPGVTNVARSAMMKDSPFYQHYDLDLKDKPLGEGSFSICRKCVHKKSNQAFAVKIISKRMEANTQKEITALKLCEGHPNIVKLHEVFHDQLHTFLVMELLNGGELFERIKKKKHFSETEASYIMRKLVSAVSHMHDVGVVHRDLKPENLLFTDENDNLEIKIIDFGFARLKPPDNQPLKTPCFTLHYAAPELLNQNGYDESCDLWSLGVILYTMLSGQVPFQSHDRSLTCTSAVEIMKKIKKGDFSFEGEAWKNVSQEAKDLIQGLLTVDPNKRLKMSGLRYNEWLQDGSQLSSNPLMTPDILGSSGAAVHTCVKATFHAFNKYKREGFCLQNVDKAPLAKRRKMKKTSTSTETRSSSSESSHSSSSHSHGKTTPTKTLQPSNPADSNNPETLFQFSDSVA

Tests used:
MAPKAP-K1b [1] = assay: Substrate phosphorylation kinetics with MAPKAP-K1b; format: biochemical, rabbit
Experimental: (§1) FIG. 8. […] (A) Comparison of the substrate specificities of MSK1, MAPKAP-K1a and MAPKAP-K1b towards the indicated peptides and CREB. Phosphorylation and analysis was carried out as described in Materials and Methods. The standard errors for all reported kinetic constants were within <+20% (SEM), and the data is reported as mean values for 2 independent experiments. The Vmax values are reported as a percentage of the value obtained using Crosstide ([…], peptide 1 (SEQ ID NO:16)) as a substrate. The peptide […] (SEQ ID NO:18) corresponding to residues 126–136 of CREB is termed CREBtide. The serine residues shown in bold correspond to the phosphorylated serine residues on the peptides. […] (B) GST-MSK1 (solid bars), GST-MAPKAPK-1a (open bars), MAPKAP-K-1b (speckled bars) or GST-MAPKAP-K2 (diagonal bars) were assayed with the indicated substrates. […] The phosphorylation of CREB by MAPKAP-K2 shown in the figure is corrected to show only the contribution of Ser133 phosphorylation to the total incorporation of phosphate into CREB. […]
(§2) Phosphorylation of CREB and HSP27 by MSK1 and MAPKAP-K1a/b (see FIG. 8). MSK1 and MAPKAP-K1a expressed as GST fusion proteins were purified from TPA stimulated 293 cells (FIG. 3) and MAPKAP-K1b was purified from rabbit skeletal muscle (Sutherland et al., 1993). […] The ^32P-radioactivity incorporated was then determined by Cerenkov counting. […]

MAPKAP-K1a = target: T1, MAPKAP-K1a (Rattus norvegicus, UniProt Q63531); assay: Substrate phosphorylation kinetics with GST-MAPKAP-K1a; format: biochemical
T1 construct: made in house; host or cells: human embryonic kidney 293 cells, TPA-stimulated
Experimental: as §1, §2

CREB and ATF1 = CREB and ATF1 phosphorylation in RAW 264 macrophages, immunoblot; format: cell-based, mouse; settings: forskolin (20 TM) plus IBMX (10 TM), 15 min
Experimental: FIG. 15. […] After cell lysis aliquots were assayed for either MSK1 (A), MAPKAP-K1 (B), MAPKAP-K2 (C) after their immunoprecipitation from the lysates or immunoblotted for phosphorylation of CREB and ATF1 (D).
FIG. 19. […] (A) Macrophages were stimulated for the times indicated with LPS (100 ng/ml). After cell lysis, aliquots of the lysate (30 Tg protein) were denatured in SDS, electrophoresed on a 10% polyacrylamide gel, transferred to a nitrocellulose membrane, and immunoblotted with a phospho-CREB antibody. The positions of the molecular mass markers glycogen phosphorylase (97 kDa), bovine serum albumin (66 kDa), ovalbumin (43 kDa) and carbonic anhydrase (30 kDa) are indicated. […] (B) As in A, except that the macrophages were incubated for 1 h in the presence or absence of 50 TM PD 98059 and/or 10 TM SB 203580 (SB), or 5 TM Ro 318220 (Ro), then stimulated for 1 h in the absence or presence of 100 ng/ml LPS and in the continued presence or absence of the inhibitors.
FIG. 22. […] (A) Macrophages were stimulated for 1 h with LPS (100 ng/ml) or for 15 min with forskolin (F) (20 TM) plus IBMX (10 TM). After cell lysis, aliquots of the lysate (30 Tg protein) were immunoblotted with a phospho-specific CREB antibody (see legend to FIG. 19 for details and molecular mass markers). […]

MAPKAP-K1b [2] = target: T2, MAPKAP-K1b (Oryctolagus cuniculus, UniProt A0A5F9C4L9); assay: Substrate phosphorylation kinetics with MAPKAP-K1b; format: biochemical, rabbit
T2 construct: MAPKAP-K1b was purified from rabbit skeletal muscle (Sutherland et al., 1993); from tissue; host or cells: rabbit skeletal muscle
Experimental: as §1, §2

MSK1 = MSK1 (Homo sapiens, UniProt O75582); assay: Substrate phosphorylation kinetics with GST-MSK1; format: biochemical; set-up: generate a full length FLAG-MSK 1 construct in the pCMV5 mammalian expression; made in house; host or cells: human embryonic kidney 293 cells (TPA-stimulated before lysis)
Experimental: FIG. 8. MSK1 phosphorylates CREB at Ser133. (A) Comparison of the substrate specificities of MSK1, MAPKAP-K1a and MAPKAP-K1b towards the indicated peptides and CREB. Phosphorylation and analysis was carried out as described in Materials and Methods. The standard errors for all reported kinetic constants were within <+20% (SEM), and the data is reported as mean values for 2 independent experiments. The Vmax values are reported as a percentage of the value obtained using Crosstide ([…], peptide 1 (SEQ ID NO:16)) as a substrate. The peptide […] (SEQ ID NO:18) corresponding to residues 126–136 of CREB is termed CREBtide. The serine residues shown in bold correspond to the phosphorylated serine residues on the peptides. […] 75% of the radioactivity applied to the column was recovered from the major ^32P-containing peptide at 13% acetonitrile (the remainder of the radioactivity eluted as numerous minor peaks). […]
Phosphorylation of CREB and HSP27 by MSK1 and MAPKAP-K1a/b (see FIG. 8). MSK1 and MAPKAP-K1a expressed as GST fusion proteins were purified from TPA stimulated 293 cells (FIG. 3) and MAPKAP-K1b was purified from rabbit skeletal muscle (Sutherland et al., 1993). […] The ^32P-radioactivity incorporated was then determined by Cerenkov counting. […] The supernatant, containing 95% of the ^32P-radioactivity, was chromatographed on a Vydac C18 column as described in the legend to FIG. 8. […]

## CC[C@H](C)[C@H](NC(=O)[C@@H](N)CCC(=O)O)C(=O)N[C@@H](CC(C)C)C(=O)N[C@@H](CO)C(=O)N[C@@H](CCCNC(=N)N)C(=O)N[C@@H](CCCNC(=N)N)C(=O)N1CCC[C@H]1C(=O)N[C@@H](CO)C(=O)N[C@@H](Cc1ccc(O)cc1)C(=O)N[C@@H](CCCNC(=N)N)C(=O)N[C@@H](CCCCN)C(=O)O [CREBtide] (H-EILSRRPSYRK-OH)
MAPKAP-K1b [1]
  Km for MAPKAP-K1b relative to Km for MSK1: at least 200 fold
MAPKAP-K1a
  Km for MAPKAP K1a relative to Km for MSK1: at least 200 fold

## C=C[C@@]1(C)CC(=O)[C@]2(O)[C@@]3(C)[C@@H](O)CCC(C)(C)[C@@H]3[C@H](O)[C@H](OC(C)=O)[C@@]2(C)O1 [forskolin]
CREB and ATF1
  phosphorylation of CREB and ATF-1 triggered by the agonist: triggers a similar phosphorylation of CREB and ATF-1 to that induced by LPS

## C[C@H](NC(=O)[C@H](Cc1ccccc1)NC(=O)[C@H](CO)NC(=O)[C@H](CO)NC(=O)[C@@H](NC(=O)[C@H](CCCNC(=N)N)NC(=O)[C@@H]1CCCN1C(=O)[C@H](CCCNC(=N)N)NC(=O)CN)[C@@H](C)O)C(=O)N[C@@H](CCC(=O)O)C(=O)NCC(=O)O [Crosstide] (H-GRPRTSSFAEG-OH)
MAPKAP-K1b [2]
  Vmax of MAPKAP-K1b towards the peptide: 800 U/mg
MSK1
  Vmax of MSK1 towards the peptide: 200 U/mg
MAPKAP-K1a
  Vmax of MAPKAP-K1a towards the peptide: 350 U/mg
